Results reported in publication PMC11552344.
These are yes or no findings as the source states them, for the method shown. In cells and extracts the contact can be indirect. Some results given as binding are weak or reduced against the parent protein; the word gives no strength.

By UniProt entry, the sequences of proteins in these tests, tags left out.
UniProt O35800: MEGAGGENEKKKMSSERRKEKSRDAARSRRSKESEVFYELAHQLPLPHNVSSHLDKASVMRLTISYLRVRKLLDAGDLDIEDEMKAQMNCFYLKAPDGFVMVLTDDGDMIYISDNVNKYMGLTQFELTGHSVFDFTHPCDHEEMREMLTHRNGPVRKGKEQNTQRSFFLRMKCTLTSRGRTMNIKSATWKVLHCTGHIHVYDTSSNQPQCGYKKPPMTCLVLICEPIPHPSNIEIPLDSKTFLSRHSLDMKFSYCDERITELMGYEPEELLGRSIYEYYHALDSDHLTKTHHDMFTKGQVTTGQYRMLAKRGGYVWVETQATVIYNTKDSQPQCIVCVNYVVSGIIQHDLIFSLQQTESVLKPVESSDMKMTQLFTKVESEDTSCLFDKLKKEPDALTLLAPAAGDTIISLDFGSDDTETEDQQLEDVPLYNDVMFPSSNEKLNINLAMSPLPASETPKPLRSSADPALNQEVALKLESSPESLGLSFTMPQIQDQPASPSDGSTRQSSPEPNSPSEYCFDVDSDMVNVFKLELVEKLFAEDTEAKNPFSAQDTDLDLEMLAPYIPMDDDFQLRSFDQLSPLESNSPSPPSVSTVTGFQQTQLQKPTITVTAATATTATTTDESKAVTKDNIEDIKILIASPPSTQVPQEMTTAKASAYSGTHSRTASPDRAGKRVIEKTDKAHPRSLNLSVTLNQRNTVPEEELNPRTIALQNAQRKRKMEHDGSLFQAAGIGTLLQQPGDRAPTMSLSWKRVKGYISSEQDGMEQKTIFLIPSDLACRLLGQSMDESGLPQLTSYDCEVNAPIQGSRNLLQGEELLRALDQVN
UniProt Q16665: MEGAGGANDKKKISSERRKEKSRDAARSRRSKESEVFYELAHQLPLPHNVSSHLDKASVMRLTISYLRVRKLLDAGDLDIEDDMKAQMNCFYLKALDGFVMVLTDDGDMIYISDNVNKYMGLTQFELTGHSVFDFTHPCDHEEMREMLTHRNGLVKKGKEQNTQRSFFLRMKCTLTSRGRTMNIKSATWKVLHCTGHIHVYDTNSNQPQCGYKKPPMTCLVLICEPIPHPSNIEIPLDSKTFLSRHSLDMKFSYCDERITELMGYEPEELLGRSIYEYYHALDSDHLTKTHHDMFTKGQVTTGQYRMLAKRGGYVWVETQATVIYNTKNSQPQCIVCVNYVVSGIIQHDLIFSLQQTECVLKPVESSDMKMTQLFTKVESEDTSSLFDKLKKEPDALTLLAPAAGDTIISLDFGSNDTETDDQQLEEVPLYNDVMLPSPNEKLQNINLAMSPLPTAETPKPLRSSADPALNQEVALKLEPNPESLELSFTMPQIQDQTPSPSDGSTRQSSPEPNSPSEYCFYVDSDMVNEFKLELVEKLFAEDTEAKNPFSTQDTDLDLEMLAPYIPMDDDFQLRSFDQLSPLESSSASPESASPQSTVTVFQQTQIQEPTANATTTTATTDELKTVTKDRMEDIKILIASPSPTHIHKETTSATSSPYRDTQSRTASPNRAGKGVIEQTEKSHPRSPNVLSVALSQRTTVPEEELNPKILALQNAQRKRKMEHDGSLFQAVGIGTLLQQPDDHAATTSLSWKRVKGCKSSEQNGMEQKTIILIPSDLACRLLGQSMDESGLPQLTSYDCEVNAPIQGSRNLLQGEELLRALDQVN
UniProt Q07969: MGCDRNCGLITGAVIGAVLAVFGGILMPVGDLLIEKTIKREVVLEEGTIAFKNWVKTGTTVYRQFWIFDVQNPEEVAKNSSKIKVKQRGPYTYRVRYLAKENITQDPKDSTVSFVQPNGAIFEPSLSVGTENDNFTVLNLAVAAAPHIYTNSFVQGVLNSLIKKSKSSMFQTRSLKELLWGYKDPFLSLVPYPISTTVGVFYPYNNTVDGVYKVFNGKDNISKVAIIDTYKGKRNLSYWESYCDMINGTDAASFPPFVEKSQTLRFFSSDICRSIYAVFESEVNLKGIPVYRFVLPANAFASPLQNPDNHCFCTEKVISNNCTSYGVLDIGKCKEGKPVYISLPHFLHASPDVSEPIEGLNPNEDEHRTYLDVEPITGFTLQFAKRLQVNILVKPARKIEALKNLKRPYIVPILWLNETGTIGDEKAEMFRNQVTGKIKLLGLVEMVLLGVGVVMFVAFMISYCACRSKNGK
UniProt P27986: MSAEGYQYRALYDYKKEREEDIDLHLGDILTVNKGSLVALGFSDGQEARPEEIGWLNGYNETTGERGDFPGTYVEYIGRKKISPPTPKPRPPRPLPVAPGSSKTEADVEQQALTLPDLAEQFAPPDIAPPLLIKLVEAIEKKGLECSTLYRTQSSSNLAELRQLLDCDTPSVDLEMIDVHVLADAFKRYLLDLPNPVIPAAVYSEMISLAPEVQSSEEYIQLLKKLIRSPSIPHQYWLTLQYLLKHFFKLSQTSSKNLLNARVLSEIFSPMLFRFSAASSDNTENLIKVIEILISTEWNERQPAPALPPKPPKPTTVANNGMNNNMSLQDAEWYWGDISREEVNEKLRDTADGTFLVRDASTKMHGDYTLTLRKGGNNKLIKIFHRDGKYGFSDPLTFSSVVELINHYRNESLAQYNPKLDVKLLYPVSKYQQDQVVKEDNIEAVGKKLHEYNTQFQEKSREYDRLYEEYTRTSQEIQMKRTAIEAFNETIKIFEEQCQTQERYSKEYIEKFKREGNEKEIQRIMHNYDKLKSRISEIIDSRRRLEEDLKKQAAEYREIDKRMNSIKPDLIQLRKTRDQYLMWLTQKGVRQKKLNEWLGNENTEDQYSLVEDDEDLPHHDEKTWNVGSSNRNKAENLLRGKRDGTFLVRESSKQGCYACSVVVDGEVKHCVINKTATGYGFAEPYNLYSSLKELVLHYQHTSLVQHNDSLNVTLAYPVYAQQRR
UniProt P16671: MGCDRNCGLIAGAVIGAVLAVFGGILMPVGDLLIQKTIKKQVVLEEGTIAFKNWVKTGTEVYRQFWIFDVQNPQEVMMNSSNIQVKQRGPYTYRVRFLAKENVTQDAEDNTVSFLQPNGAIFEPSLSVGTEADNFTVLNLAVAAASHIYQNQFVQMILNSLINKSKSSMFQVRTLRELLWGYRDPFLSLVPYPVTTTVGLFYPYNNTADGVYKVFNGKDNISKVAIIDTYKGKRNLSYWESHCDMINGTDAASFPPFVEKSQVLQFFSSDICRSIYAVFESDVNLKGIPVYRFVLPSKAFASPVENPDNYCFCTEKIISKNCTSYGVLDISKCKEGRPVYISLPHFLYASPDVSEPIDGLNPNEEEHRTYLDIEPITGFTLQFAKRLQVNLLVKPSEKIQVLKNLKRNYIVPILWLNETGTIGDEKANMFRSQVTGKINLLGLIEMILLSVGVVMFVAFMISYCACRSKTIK

Experiments:
[1] = biological target: hypoxia-inducible factor-1α (rat, endogenous in H9c2 cells) (rat (endogenous in H9c2)) (UniProt O35800); assay: co-IP; lysates of hPASMCs and H9c2 cells (IP lysis buffer) incubated with anti-HIF-1α antibody (ab179483) or normal rabbit IgG overnight at 4 °C, Protein A/G agarose beads 2 h at 4 °C; western blotting for HIF-1α, CD36 and PI3K p85α
[2] = biological target: hypoxia-inducible factor-1α (human, endogenous in hPASMCs) (human (endogenous in hPASMCs)) (UniProt Q16665); assay: as above

| binding [1] | binding [2] | Substance |
| --- | --- | --- |
| binds |  | CD36, fatty acid transporter (rat, endogenous in H9c2 cells) (from UniProt Q07969 1-472) |
|  | binds | phosphatidylinositol 3-kinase (PI3K) p85α (human, endogenous in hPASMCs) (from UniProt P27986 1-724) |
| binds |  | phosphatidylinositol 3-kinase (PI3K) p85α (rat, endogenous in H9c2 cells) (from UniProt Q63787-1 1-724) |
|  | binds | CD36, fatty acid transporter (human, endogenous in hPASMCs) (from UniProt P16671 1-472) |
